Data as given in article PMC11078746 (Nature, 2024).
Values joined by “and” are separate entries in the source; they are usually repeats but may differ in a detail not shown here. Identical values can stand only once. The source gives many values for each of these; only a part stands here.

Tested on: SW48 xenografts
Experiment: SW48 cell-derived xenograft efficacy, HRO761 orally once daily
Type: in vivo, mouse
Experimental: All animal studies were conducted in accordance with ethics and procedures covered by permit BS-2275 and BS-1975 issued by the Kantonales Veterinäramt Basel-Stadt and in strict adherence to guidelines of the Eidgenössisches Tierschutzgesetz and the Eidgenössische Tierschutzverordnung, Switzerland. All animal studies were approved by the internal ethics committee. All animals had access to food and water ad libitum and were identified with transponders. They were housed in a specific-pathogen-free facility in IVC racks under a 12 h–12 h light–dark cycle. To establish cell-line-derived xenograft models, 6–7-week-old female athymic nude (Crl:NU(NCr)-Foxn1^nu) or SCID-BEIGE (CB17.Cg-PrkdcscidLystbg-J/Crl) mice from Charles River were engrafted subcutaneously with 5 million tumour cells in HBSS (H6648, Sigma-Aldrich). For SNU-407, Lovo, IM95, RL95.2, Ishikawa and IGROV-1, the cells were concentrated in 50% Matrigel (354234, Corning). Patient-derived xenografts were induced and expanded by transplantation as previously described. […] For the efficacy experiment, mice were randomized into groups (n = 5–6) for a mean tumour size of 100–150 mm^3. […] Blood samples were collected on day 7 and 91. […] Tumour responses are reported with the measures of tumour volumes from the treatment start. […] Animals were randomized (n = 3) and tumour samples were collected at 0, 1, 4, 8 and 24 h on the first day and then collected 4 h after the last treatment on day 3, 8, 10, 14 (including a 24 h timepoint), 17 and 21. Tumours were excised, weighed, either frozen in liquid nitrogen and cryogenic dry pulverized with the CryoPrep system (model CP-02, Covaris) or processed to FFPE after fixation. […] On day 12, blood samples were collected for PK analysis. On the last day (3 h after the last treatment), tumours were excised, weighed, frozen in liquid nitrogen and cryogenic dry pulverized for PD analysis.

**Q.** What does the source list for `CCc1c(N2CCN(C(=O)c3ncnc(C)c3O)CC2)c(=O)n2nc(C3=CCOCC3)nc2n1CC(=O)Nc1ccc(C(F)(F)F)cc1Cl` [HRO761]?
**A.** TVol, individual mouse (HRO761 60mg/kg, day 42 post 1st dose, 60 mg/kg): 38.34 mm3 and 25.51 mm3 and 14.73 mm3 and 20.65 mm3 and 34.22 mm3; TVol, individual mouse (HRO761 60mg/kg, day 45 post 1st dose, 60 mg/kg): 47.39 mm3 and 21 mm3 and 15.41 mm3 and 28.75 mm3 and 29.52 mm3; TVol, individual mouse (HRO761 60mg/kg, day 49 post 1st dose, 60 mg/kg): 51.51 mm3 and 18.01 mm3 and 21.47 mm3 and 23.95 mm3 and 28.03 mm3; TVol, individual mouse (HRO761 60mg/kg, day 52 post 1st dose, 60 mg/kg): 68.35 mm3 and 24.01 mm3 and 24.32 mm3 and 43.1 mm3 and 38.53 mm3; TVol, individual mouse (HRO761 60mg/kg, day 56 post 1st dose, 60 mg/kg): 82.87 mm3 and 7.91 mm3 and 30.79 mm3 and 31.31 mm3 and 53.59 mm3; TVol, individual mouse (HRO761 60mg/kg, day 59 post 1st dose, 60 mg/kg): 103.18 mm3 and 10.3 mm3 and 48.16 mm3 and 59.59 mm3 and 69.82 mm3; TVol, individual mouse (HRO761 60mg/kg, day 63 post 1st dose, 60 mg/kg): 102.68 mm3 and 9.67 mm3 and 42.12 mm3 and 67.35 mm3 and 93.52 mm3; TVol, individual mouse (HRO761 60mg/kg, day 66 post 1st dose, 60 mg/kg): 101.51 mm3 and 13.13 mm3 and 57.48 mm3 and 81.89 mm3 and 113.13 mm3; TVol, individual mouse (HRO761 60mg/kg, day 70 post 1st dose, 60 mg/kg): 127.55 mm3 and 15.6 mm3 and 77.18 mm3 and 112.34 mm3 and 128.92 mm3; TVol, individual mouse (HRO761 60mg/kg, day 73 post 1st dose, 60 mg/kg): 119.24 mm3 and 17.3 mm3 and 93.25 mm3 and 122.55 mm3 and 148.14 mm3; TVol, individual mouse (HRO761 60mg/kg, day 76 post 1st dose, 60 mg/kg): 153.16 mm3 and 20.34 mm3 and 83.04 mm3 and 141.81 mm3 and 192.27 mm3; TVol, individual mouse (HRO761 60mg/kg, day 79 post 1st dose, 60 mg/kg): 180.13 mm3 and 32.32 mm3 and 98.53 mm3 and 183.17 mm3 and 228.57 mm3; TVol, individual mouse (HRO761 60mg/kg, day 83 post 1st dose, 60 mg/kg): 188.68 mm3 and 36.4 mm3 and 118.06 mm3 and 197.83 mm3 and 298.54 mm3; TVol, individual mouse (HRO761 60mg/kg, day 86 post 1st dose, 60 mg/kg): 277.63 mm3 and 35.68 mm3 and 148.42 mm3 and 200.74 mm3 and 324.66 mm3; TVol, individual mouse (HRO761 60mg/kg, day 90 post 1st dose, 60 mg/kg): 353.7 mm3 and 58.99 mm3 and 203.08 mm3 and 217.42 mm3 and 418.27 mm3; TVol, individual mouse (HRO761 60mg/kg, day 92 post 1st dose, 60 mg/kg): 334.59 mm3 and 57.33 mm3 and 204.82 mm3 and 218.54 mm3 and 474.36 mm3; TVol, individual mouse (HRO761 120mg/kg, day 0 post 1st dose, 120 mg/kg): 116.68 mm3 and 125.27 mm3 and 177.18 mm3 and 142.4 mm3 and 181.53 mm3; TVol, individual mouse (HRO761 120mg/kg, day 3 post 1st dose, 120 mg/kg): 142.47 mm3 and 186.73 mm3 and 186.95 mm3 and 111.35 mm3 and 197.89 mm3; TVol, individual mouse (HRO761 120mg/kg, day 7 post 1st dose, 120 mg/kg): 141.84 mm3 and 146.3 mm3 and 153.59 mm3 and 128.76 mm3 and 204.55 mm3; TVol, individual mouse (HRO761 120mg/kg, day 10 post 1st dose, 120 mg/kg): 156.98 mm3 and 135.71 mm3 and 131.09 mm3 and 118.43 mm3 and 177.29 mm3; TVol, individual mouse (HRO761 120mg/kg, day 31 post 1st dose, 120 mg/kg): 18.4 mm3 and 30.97 mm3 and 20.27 mm3 and 13.58 mm3 and 31.87 mm3; TVol, individual mouse (HRO761 120mg/kg, day 35 post 1st dose, 120 mg/kg): 11.73 mm3 and 21.67 mm3 and 18.71 mm3 and 15.84 mm3 and 25.06 mm3; TVol, individual mouse (HRO761 120mg/kg, day 38 post 1st dose, 120 mg/kg): 10.12 mm3 and 24.79 mm3 and 15.42 mm3 and 10.17 mm3 and 14.7 mm3; TVol, individual mouse (HRO761 120mg/kg, day 42 post 1st dose, 120 mg/kg): 11.83 mm3 and 20.83 mm3 and 24.05 mm3 and 7.53 mm3 and 11.98 mm3; TVol, individual mouse (HRO761 120mg/kg, day 45 post 1st dose, 120 mg/kg): 14.14 mm3 and 22.52 mm3 and 34.42 mm3 and 11.93 mm3 and 27.68 mm3; TVol, individual mouse (HRO761 120mg/kg, day 49 post 1st dose, 120 mg/kg): 12.44 mm3 and 9.2 mm3 and 35.08 mm3 and 16.12 mm3 and 14.85 mm3; TVol, individual mouse (HRO761 120mg/kg, day 52 post 1st dose, 120 mg/kg): 12.46 mm3 and 2.93 mm3 and 31.32 mm3 and 19.01 mm3 and 7.39 mm3; TVol, individual mouse (HRO761 120mg/kg, day 56 post 1st dose, 120 mg/kg): 20.97 mm3 and 5 mm3 and 46.97 mm3 and 34.59 mm3 and 9.29 mm3; TVol, individual mouse (HRO761 120mg/kg, day 59 post 1st dose, 120 mg/kg): 24.89 mm3 and 6.45 mm3 and 43.1 mm3 and 38.18 mm3 and 7.96 mm3; TVol, individual mouse (HRO761 120mg/kg, day 63 post 1st dose, 120 mg/kg): 29.66 mm3 and 3.38 mm3 and 45.16 mm3 and 42.08 mm3 and 8.27 mm3; TVol, individual mouse (HRO761 120mg/kg, day 66 post 1st dose, 120 mg/kg): 36.01 mm3 and 1.11 mm3 and 63.74 mm3 and 62.9 mm3 and 6.44 mm3; TVol, individual mouse (HRO761 120mg/kg, day 70 post 1st dose, 120 mg/kg): 47.92 mm3 and 1.76 mm3 and 70.95 mm3 and 72.09 mm3 and 4.36 mm3; TVol, individual mouse (HRO761 120mg/kg, day 73 post 1st dose, 120 mg/kg): 51.19 mm3 and 4.39 mm3 and 77 mm3 and 93.1 mm3 and 3.15 mm3; TVol, individual mouse (HRO761 120mg/kg, day 76 post 1st dose, 120 mg/kg): 58.83 mm3 and 2.67 mm3 and 76.97 mm3 and 85.78 mm3 and 4.13 mm3; TVol, individual mouse (HRO761 120mg/kg, day 79 post 1st dose, 120 mg/kg): 74.28 mm3 and 3.38 mm3 and 84.28 mm3 and 104.47 mm3 and 5.16 mm3; TVol, individual mouse (HRO761 120mg/kg, day 83 post 1st dose, 120 mg/kg): 88.58 mm3 and 2.55 mm3 and 98.28 mm3 and 141.69 mm3 and 3.47 mm3; TVol, individual mouse (HRO761 120mg/kg, day 86 post 1st dose, 120 mg/kg): 145.33 mm3 and 2.84 mm3 and 118.1 mm3 and 155.48 mm3 and 5.53 mm3; TVol, individual mouse (HRO761 120mg/kg, day 90 post 1st dose, 120 mg/kg): 162.9 mm3 and 0.32 mm3 and 119.94 mm3 and 167.94 mm3 and 6.07 mm3; TVol, individual mouse (HRO761 120mg/kg, day 92 post 1st dose, 120 mg/kg): 149.38 mm3 and 0.7 mm3 and 108.13 mm3 and 215.2 mm3 and 1.43 mm3
